Literature values in US20060189576A1, “Substituted vitamin d analogues and their therapeutic uses” (priority 2003, published 2006).

Test system: MCF-7 cells
Conditions: known superagonists; data published in J Bone Mineral Res 15 (2): 237-252 (2000); cited from earlier work

Row | Structure (SMILES) | Specificity ratio
1 | C=C1/C(=C\C=C2/CCC[C@]3(C)[C@@H]([C@H](C)/C=C/[C@@H](O)C4CC4)CC[C@@H]23)C[C@@H](O)C[C@@H]1O [MC 903] | 200
2 | C=C1/C(=C\C=C2/CCC[C@]3(C)[C@@H]([C@H](C)OCCC(C)(C)O)CC[C@@H]23)C[C@@H](O)C[C@@H]1O [OCT] | 330-500
